Laboratory results: paper PMC10163288
This is one part of the list.

B1: il10ra_site1_normal_mot_HHH_b2_01447_af2_000000258_0001_1_20_H_._HHH_b1_01394_0001_0000100005_0000001_0 (protein)
chain: SSSSTEEVQEIMKLLRRLAELVQNRDEEEFEEIVREAERLIEEANNEILEFALRLLEEAINSSSS
B2: il10ra_site1_sap_22_mot_HHH_b1_03460_000000139_0001_1_20_H_._HHH_b1_03209_af2_0001_0000300017_0000001_0_0001_af2pred_0001 (protein)
chain: SSSSSSDLERLLEAIRRLLELGDEELAELTLRFLKRLAEDLGDEEVEEEVKRLEEELESSSSSSS
B3: il10ra_site1_sap_15_mot_HHH_b2_04050_000000291_0001_1_20_H_._HHH_b2_00671_af2_0001_0000400020_0000001_0_0001_af2pred_0001 (protein)
chain: SSSSDEEEAAQEAFRLLREALHIDDEEEARKILEEALELAEEANNETLRWSIRRALEELESSSSS
B4: il10ra_site1_sap_14_mot_HHH_b1_00103_000000293_0001_1_15_H_._HHH_b2_03603_0001_0000200017_0000002_0_0001_af2pred_0001 (protein)
chain: SSSSSDQEYREEVEELLEEAEKISDPDRRSYVLIRAFALANRGNDPELRELVEKVAIELISSSSS
B5: il10ra_site1_sap_19_mot_8756ee2cf497b5429c717dfc0c0bcfd6_0001_000000186_0001_1_13_H_._HHH_b2_04852_0001_0000700039_0000001_0_0001 (protein)
chain: SSSSQEFYRLLERAIELASKLNDEETLKEIMELLREWFKKGDPRLEEQLKELLEELEERGSSSSS
B6: il10ra_site1_sap_17_mot_HHH_b2_03328_af2_000000127_0001_1_19_H_._HHH_b1_04993_0001_0000100008_0000001_0_0001 (protein)
chain: SSSSSIRERIIRLLYRALRLAAEGNPEEAERLIEEAHELAEELGDPELERYIRILLHFVRSSSSS
B7: il10ra_site1_sap_18_mot_HHH_b1_01874_000000035_0001_1_20_H_._HHH_b1_01794_af2_0001_0000100003_0000001_0_0001 (protein)
chain: SSSSSEENQEALRLSLEAFRLALRGNPEEAKEVLEEAAELAHRAGNERLLRQIENMLEALKSSSS
B8: il10ra_site1_normal_mot_HHH_b2_04057_000000065_0001_1_20_H_._HHH_b1_08686_0001_0000500032_0000002_0 (protein)
chain: SSSSSEEEVQELLREAEELNRRGDPDEAYKVIREVIELAAELNDPELQRLVLRLIREFLRLSSSS
B9: il10ra_site1_normal_mot_b26a303360aa2756ef5b79665ce52f45_0001_000000179_0001_1_11_H_._153aee36648f4e76fbed4769f1632b1b_0001_0001_0000400017_0000001_0 (protein)
chain: SKLEEVEELLEELAKRDVVAISLLHLLRADKRAGVPPEEILERLQEAARRANSPFARELLKLLEK
B10: il10ra_site1_sap_14_mot_HHH_b2_00943_af2_000000149_0001_1_17_H_._HHH_b2_04744_0001_0000100007_0000002_0_0001_af2pred_0001 (protein)
chain: SSSSTEEVRELFKLLRRVIELASEGDKEEFEELVEEAEELARELGNTTFEVILEFLKEQQSSSSS
B11: il10ra_site1_normal_mot_HHH_b1_05357_000000034_0001_23_39_H_._HHH_b1_03625_af2_0001_0000700020_0000001_0 (protein)
chain: SSSSSDEKEVTHILIQAYAAANHGNPEEAEELLKEAKEIAEEINNERLKLSIEKVEEILRSSSSS
B12: il10ra_site1_sap_18_mot_HHH_b2_04251_af2_000000037_0001_42_56_H_._HHH_b1_04956_0001_0000300035_0000001_0_0001_af2pred_0001 (protein)
chain: SSSSSSDAAREAIELIREALHIEDKEEAKELLEEAEELAQEANNPLALLQIRFALEQLSSSSSSS
B13: il10ra_site1_normal_mot_HHH_b2_03425_000000200_0001_22_39_H_._HHH_b1_07967_af2_0001_0000300014_0000002_0 (protein)
chain: SSSSNERERLYELLRRLIELSRHRDEEEFEKVYEEIQELVEELNNLLARFVLEIIERAFEGSSSS
B14: il10ra_site1_normal_mot_HHH_b2_02053_af2_000000006_0001_3_19_H_._HHH_b1_02595_0001_0000100002_0000001_1 (protein)
chain: SSSSTEADEEIYRLLRRVLELLARGNPEEAREVLEEAQELAEENNNRNLLFNIRHLKRDVNSSSS
B15: il10ra_site1_sap_20_mot_HHH_b1_07527_000000076_0001_1_15_H_._HHH_b1_08045_af2_0001_0000300025_0000001_0_0001_af2pred_0001 (protein)
chain: SSSSSEVREEVAKILAEAFVLAREGNPEEVEKVLEEAREVAEEHNDRQAERLVEFVEKILKSSSS
B16: il10ra_site1_normal_mot_HHH_b1_00999_000000080_0001_41_55_H_._ems_p1-15H-GBL-16H-GABBL-16H_0175_0001_0001_0002_af2_0001_0000200009_0000001_0 (protein)
chain: SSSSSDVSELAAEAVRFAFRNGDEEGLQEIWEIVKAWGNGEISREEASERLEEILEELRSSSSSS
B17: il10ra_site1_sap_15_mot_HHH_b2_07006_000000108_0001_1_19_H_._HHH_b1_01905_0001_0000100005_0000002_0_0001 (protein)
chain: SSSSDEWYERVKEILEEVVKLLRNGDPEEAEKLLEELEELVRENNDMATLATVEWLKELVRSSSS
B18: il10ra_site1_sap_13_mot_HHH_b1_02665_000000293_0001_1_18_H_._HHH_b1_06851_af2_0001_0000400020_0000001_0_0001 (protein)
chain: SSSSEEIYELVKRVIELAVEANDPEAARRAMELFIRYAQEGDPRYKEELEELLEELEEELRSSSS
B19: il10ra_site1_sap_23_mot_HHH_b1_02809_af2_000000277_0001_40_57_H_._HHH_b1_00736_af2_0001_0000600067_0000001_0_0001 (protein)
chain: SSSSSSDIEEIVEELLEEAEHVDEEERSKLLQEAVQFAIQGQDPELLRLVWRVVKELGKSSSSSS
B20: il10ra_site1_sap_16_mot_HHH_b1_06816_000000239_0001_1_19_H_._HHH_b1_03656_af2_0001_0000200006_0000001_0_0001_af2pred_0001 (protein)
chain: SSSSSSEELLRLAKKSIEIAEENGDEEKIKIAAHALLNAAKKANDPEALRFAEEVLEEVNSSSSS
B21: il10ra_site1_normal_mot_HHH_b1_05185_000000011_0001_22_39_H_._HHH_b1_04526_0002_0000200028_0000002_0 (protein)
chain: SSSSDEEIKRVSELFQRMSKLLEEGDHERVEELLEELKELAEEINDPYARLSAHFIEALLNSSSS
B22: il10ra_site1_normal_mot_HHH_b1_04065_000000255_0001_41_56_H_._HHH_b2_07924_0001_0000100001_0000001_0 (protein)
chain: SSSSSDEEREEAEELLEEAKEIDDERERSELLAKALRIATELRDRELARLVDRVAIRLYHSSSSS
B23: il10ra_site1_normal_mot_HHH_b1_03754_af2_000000016_0001_40_56_H_._HHH_b2_05518_0001_0000100006_0000001_0 (protein)
chain: SSSSSEEERYLELSLRFLRFLLEAGDERAARRFAHALLQLAERLNDEEVQEEVKKILEELSSSSS
B24: il10ra_site1_normal_mot_HHH_b1_05357_000000034_0001_23_39_H_._HHH_b1_06316_0001_0000500053_0000001_0_af2pred_0001 (protein)
chain: SSSSSDEEEREVEEILEEAEKIEDPEERSYVLTEAYALANRVKDPELKELVRRVAQELTSSSSSS
B25: il10ra_site1_sap_20_mot_HHH_b1_03763_000000209_0001_22_38_H_._75682a83c85cb44ccff1401ed1a83487_0001_1_0001_0000400017_0000002_0_0001_af2pred_0001 (protein)
chain: SSSSTEAEVIVRIYKEAVKAAEELGDERAAKLAIEAALLQLRRLGDEEAVERLEKLLEEVTSSSS
B26: il10ra_site1_normal_mot_HHH_b2_01397_000000078_0001_23_39_H_._HHH_b2_08075_0001_0000300026_0000002_0_af2pred_0001 (protein)
chain: SSSSDERVKLTLRFAEALAKHGDRRAVELLLRAARQLAERDGDEELEELIEEVEERVRELLSSSS
B27: il10ra_site1_sap_23_mot_39a7b8d0c4c3fc04bafbda6ce6101d3a_0001_1_af2_000000014_0001_34_48_H_._HHH_b2_06439_af2_0001_0000200006_0000001_0_0001 (protein)
chain: SSSSDEEQEEALRLSIEAFRLALRGNPEEARKLLEEALELAEELGDERLAEVIRILLETATSSSS
B28: il10ra_site1_sap_26_mot_HHH_b1_00103_000000293_0001_1_15_H_._HHH_b1_01986_0002_0000200014_0000002_0_0001_af2pred_0001 (protein)
chain: SEEEEELIEEASELAGVPPEEIERLLEAVKDVAGGDPEAIKRIVEAALRLIGDPVVEALLIALRR
B29: il10ra_site1_sap_25_mot_HHH_b2_01447_af2_000000258_0001_1_20_H_._HHH_b1_07840_0001_0000200009_0000001_0_0001_af2pred_0001 (protein)
chain: SSSDLEEEVEEIEKRLRELAEEGDEREFAQLLFRLLRLANEYNDEEASHLALKLAAEFLKKSSSS
B30: il10ra_site1_sap_26_mot_HHH_b2_08004_000000101_0001_1_17_H_._HHH_b2_05953_0001_0000600049_0000002_0_0001 (protein)
chain: SSSSSSEAEERVRELLEEAKHIDDPDEWYRLLKEAIELATENRDDEAIELVMEFNREAIHSSSSS
B31: il10ra_site1_sap_23_mot_HHH_b1_05797_000000014_0001_1_19_H_._HHH_b1_08212_0001_0000100006_0000002_0_0001_af2pred_0001 (protein)
chain: SSSSSSEDEERLELAIEFARRVSDPEVAEFLLRAAAQLAEKANNEELLEEIRRLLEELGSSSSSS
B32: il10ra_site1_sap_16_mot_HHH_b2_08127_af2_000000022_0001_1_18_H_._HHH_b1_04128_0001_0000200024_0000001_0_0001 (protein)
chain: SSSSSELEEQVERLLEEAEELRERGDPEEAIRVLLRAVRLAIRASNEELLQAVWRLVKQVSSSSS
B33: il10ra_site1_sap_25_mot_HHH_b2_04586_000000230_0001_1_16_H_._HHH_b2_04117_0001_0000400047_0000001_0_0001_af2pred_0001 (protein)
chain: SSSSSRVVELIRRIIELAREGNLEEAEELLEEVRRLAEERNDYVLEHIVESMERELEELKSSSSS
B34: il10ra_site1_normal_mot_HHH_b1_01563_af2_000000118_0001_40_54_H_._HHH_b1_07449_0001_0000100007_0000002_0 (protein)
chain: SSSSDSEELAQEAIEEAWELFQRGNREEAEKVLEEAIRELRELNDERQVRFLEFLLRAVRGSSSS
B35: il10ra_site1_normal_mot_HHH_b1_03574_000000194_0001_1_18_H_._HHH_b1_04549_0001_0000100007_0000002_0_af2pred_0001 (protein)
chain: SSSSDRLEEVQELLRRIAELMRRGDREEAQELLERAKELIEELGDLVLKAVLEHLERIVNSSSSS
B36: il10ra_site1_sap_23_mot_1c3c3e46dde0d4e4be3ec3dd9add6289_0001_000000096_0001_34_50_H_._HHH_b1_06969_af2_0001_0000400009_0000001_0_0001 (protein)
chain: SSSSDEEVVELAFEAVRLLAEGDSEEAQKVAEEALELAEELGDEELRRYIEILIHFIRSQSSSSS
B37: il10ra_site1_normal_mot_HHH_b1_07768_000000240_0001_18_35_H_._HHH_b2_01511_0001_0000300037_0000001_0 (protein)
chain: SSSSSLEFSVKFLLEHVEELLENGDKEKAEHQLEALLEHLKQAGDEELLREVEELLEEVRKSSSS

molecular target: il10ra, Q13651; assay: yeast display titration

Apparent Kd, inactive:
B1 no binding seen
B2 no binding seen
B3 no binding seen
B4 no binding seen
B5 no binding seen
B6 no binding seen
B7 no binding seen
B8 no binding seen
B9 no binding seen
B10 no binding seen
B11 no binding seen
B12 no binding seen
B13 no binding seen
B14 no binding seen
B15 no binding seen
B16 no binding seen
B17 no binding seen
B18 no binding seen
B19 no binding seen
B20 no binding seen
B21 no binding seen
B22 no binding seen
B23 no binding seen
B24 no binding seen
B25 no binding seen
B26 no binding seen
B27 no binding seen
B28 no binding seen
B29 no binding seen
B30 no binding seen
B31 no binding seen
B32 no binding seen
B33 no binding seen
B34 no binding seen
B35 no binding seen
B36 no binding seen
B37 no binding seen

Two records drawn at random from the list so far, as already listed:
Apparent Kd, inactive:
B32 no binding seen
B30 no binding seen
